No constants are given. Whether binding was seen depends on the method and setting. In cells and extracts the contact can be indirect. Some entries that bind do so weakly or less than the wild type. Tags and fused reporters may be left off the sequences shown.
Key:
Bub1-GFP (fission yeast) [1] = target: T1, Bub1-GFP (fission yeast) (UniProt O94751); test: co-IP; cells with the TetR-Spc7-wt platform; data not shown
T1 sequence: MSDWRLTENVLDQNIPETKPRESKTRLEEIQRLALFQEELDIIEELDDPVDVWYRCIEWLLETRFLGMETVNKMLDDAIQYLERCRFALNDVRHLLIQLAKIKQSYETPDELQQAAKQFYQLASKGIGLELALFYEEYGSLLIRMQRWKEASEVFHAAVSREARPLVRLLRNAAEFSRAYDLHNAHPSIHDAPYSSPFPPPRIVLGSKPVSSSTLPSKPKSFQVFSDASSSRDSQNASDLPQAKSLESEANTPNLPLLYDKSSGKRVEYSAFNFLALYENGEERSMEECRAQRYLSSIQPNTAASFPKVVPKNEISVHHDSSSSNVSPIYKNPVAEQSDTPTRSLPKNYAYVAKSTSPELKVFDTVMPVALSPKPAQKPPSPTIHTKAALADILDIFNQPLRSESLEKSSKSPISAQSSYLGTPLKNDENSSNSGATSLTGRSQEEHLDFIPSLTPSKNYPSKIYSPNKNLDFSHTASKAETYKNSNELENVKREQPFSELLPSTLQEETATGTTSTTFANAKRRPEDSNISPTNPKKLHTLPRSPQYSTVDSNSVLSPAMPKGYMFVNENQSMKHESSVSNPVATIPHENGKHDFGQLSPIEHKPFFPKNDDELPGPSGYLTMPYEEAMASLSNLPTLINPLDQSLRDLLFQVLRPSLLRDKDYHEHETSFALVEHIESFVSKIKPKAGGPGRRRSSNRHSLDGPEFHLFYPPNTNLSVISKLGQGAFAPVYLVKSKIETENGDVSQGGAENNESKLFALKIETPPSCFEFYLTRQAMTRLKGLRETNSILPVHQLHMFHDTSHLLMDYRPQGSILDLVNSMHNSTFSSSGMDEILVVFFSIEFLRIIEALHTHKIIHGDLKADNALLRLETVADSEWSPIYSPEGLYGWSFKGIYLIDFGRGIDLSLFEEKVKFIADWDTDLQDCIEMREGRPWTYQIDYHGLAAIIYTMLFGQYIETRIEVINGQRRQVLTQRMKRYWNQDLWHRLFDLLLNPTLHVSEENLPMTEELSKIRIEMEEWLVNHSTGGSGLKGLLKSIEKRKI

Bub1-GFP (fission yeast) [2] = target: T1, Bub1-GFP (fission yeast); test: co-IP; extracts made from nda3 arrested cells after DSP cross-linking; data not shown
Bub1-GFP (fission yeast) [3] = target: T1, Bub1-GFP (fission yeast); test: co-IP; Bub1-GFP immunoprecipitated from fission yeast cells arrested by co-expression of TetR-Spc7-9TE and TetR-Mph1ΔN (16 hr), cross-linked with DSP before harvesting; with and without the tetO array; also in bub3Δ cells harvested after 12 hr of induction (higher levels of the complex); immunoblots with anti-Bub1 and anti-Mad1
Alp4 (fission yeast) = target: T2, Alp4 (fission yeast) (UniProt Q9Y705); test: co-IP; synthetically arrested fission yeast cells with Mad2-GFP (Figure S3A)
T2 sequence: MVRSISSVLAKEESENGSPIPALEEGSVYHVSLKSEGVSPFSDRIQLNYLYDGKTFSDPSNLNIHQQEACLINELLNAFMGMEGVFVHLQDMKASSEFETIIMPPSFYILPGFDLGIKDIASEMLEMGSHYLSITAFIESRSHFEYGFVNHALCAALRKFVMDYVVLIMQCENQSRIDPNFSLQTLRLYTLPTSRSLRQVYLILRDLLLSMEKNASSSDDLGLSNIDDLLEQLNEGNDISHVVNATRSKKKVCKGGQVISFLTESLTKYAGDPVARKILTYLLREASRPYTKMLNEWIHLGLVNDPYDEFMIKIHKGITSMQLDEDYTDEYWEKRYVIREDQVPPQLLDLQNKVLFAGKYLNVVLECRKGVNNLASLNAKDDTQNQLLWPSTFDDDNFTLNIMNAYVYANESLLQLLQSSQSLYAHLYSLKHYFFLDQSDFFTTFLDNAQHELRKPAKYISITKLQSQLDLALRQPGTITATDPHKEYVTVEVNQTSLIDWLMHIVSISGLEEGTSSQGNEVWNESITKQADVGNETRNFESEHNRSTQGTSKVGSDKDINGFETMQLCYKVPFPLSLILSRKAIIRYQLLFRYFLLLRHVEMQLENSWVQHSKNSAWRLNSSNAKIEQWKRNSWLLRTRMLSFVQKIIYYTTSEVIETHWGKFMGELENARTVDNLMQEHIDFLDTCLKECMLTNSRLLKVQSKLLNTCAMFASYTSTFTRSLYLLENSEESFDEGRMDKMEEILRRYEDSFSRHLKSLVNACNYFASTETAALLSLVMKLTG

B1: Mad1 (protein, UniProt P87169 1-676)
chain: MADSPRDPFQSRSQLPRFLATSVKKPNLKKPSVNSANETKNPKLASLEFQLENLKNDLKRKELEFEREQIELQRKLAEEHEQKNSLQLRLTLVEKQLEEQSTSYQKEIEEVRNEKEATQVKIHELLDAKWKEIAELKTQIEKNDQALSEKNHEVMVSNQALQMKDTNLTNLEKLFADSREQLETKCKELAAAEQQLQELSVHNQQLEESIKQVSSSIELEKINAEQRLQISELEKLKAAQEERIEKLSSNNRNVEILKEEKNDLESKLYRFEEYRDKVATLELENEKIQTELNSWKSLITNELPTPEAVSNKLVFLQNTNANLGERVSSLESQLSNKPANQPLGANEKDAAHITELETKLKELHEQNRRLQRQKSLATQEIDLLRENLKSYDDEEAILSEKNTDMKKLERIEGLVKLVDEYKLKLESMPVSLDVDETSDEVSLQKRRRKNEHKDAGYVTELYRKNQHLLFQVKEKTNIEAFLREQIITLESSIATLRQELAQVTEINSCRVLQHRSNPTLKYERIKAAQLEMLNAENSALKALLEDKKVDCLPIQSFKIAERKALDLKKEVAEREKRIQRLKEIFSVKSLEFREAVFSLFGYKLDFMPNGSVRVTSTYSREDNTAFIFDGESSTMKLVGNPSGPEFERLIRFWCDERKTIPGMLAALTLELLDKND
Bub1-GFP (fission yeast) [1]
  binding: binds
Bub1-GFP (fission yeast) [2]
  binding: binds
Bub1-GFP (fission yeast) [3]
  binding: binds

B2: Mad2 (protein, UniProt O14417 1-203)
chain: MSSVPIRTNFSLKGSSKLVSEFFEYAVNSILFQRGIYPAEDFKVVRKYGLNMLVSVDEEVKTYIRKIVSQLHKWMFAKKIQKLILVITSKCSGEDLERWQFNVEMVDTADQFQNIGNKEDELRVQKEIQALIRQITATVTFLPQLEEQCTFNVLVYADKDSEVPTDWVDSDPRILRDAEQVQLRSFSTSMHKIDCQVAYRVNP
Bub1-GFP (fission yeast) [3]
  binding: binds

B3: Mad2-GFP (protein, UniProt O14417 1-203)
chain: B2 chain
Alp4 (fission yeast)
  binding: binds

Source: PMC5226922
